Among the data in publication doi:10.1101/2025.10.29.685130 are binding values, retold here.

By UniProt entry, the sequences of proteins in these tests, tags left out. Residues count along the entry.
UniProt P61164: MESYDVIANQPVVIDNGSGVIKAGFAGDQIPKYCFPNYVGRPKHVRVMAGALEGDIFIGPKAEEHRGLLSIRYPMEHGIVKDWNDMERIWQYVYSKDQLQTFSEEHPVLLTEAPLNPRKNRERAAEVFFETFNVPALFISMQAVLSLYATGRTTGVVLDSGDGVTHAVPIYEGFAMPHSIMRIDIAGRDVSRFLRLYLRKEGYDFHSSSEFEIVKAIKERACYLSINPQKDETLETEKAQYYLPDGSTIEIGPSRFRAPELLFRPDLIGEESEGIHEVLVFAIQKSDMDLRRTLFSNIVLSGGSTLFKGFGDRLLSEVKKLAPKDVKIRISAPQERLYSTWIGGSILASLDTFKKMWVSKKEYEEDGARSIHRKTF
UniProt P27546: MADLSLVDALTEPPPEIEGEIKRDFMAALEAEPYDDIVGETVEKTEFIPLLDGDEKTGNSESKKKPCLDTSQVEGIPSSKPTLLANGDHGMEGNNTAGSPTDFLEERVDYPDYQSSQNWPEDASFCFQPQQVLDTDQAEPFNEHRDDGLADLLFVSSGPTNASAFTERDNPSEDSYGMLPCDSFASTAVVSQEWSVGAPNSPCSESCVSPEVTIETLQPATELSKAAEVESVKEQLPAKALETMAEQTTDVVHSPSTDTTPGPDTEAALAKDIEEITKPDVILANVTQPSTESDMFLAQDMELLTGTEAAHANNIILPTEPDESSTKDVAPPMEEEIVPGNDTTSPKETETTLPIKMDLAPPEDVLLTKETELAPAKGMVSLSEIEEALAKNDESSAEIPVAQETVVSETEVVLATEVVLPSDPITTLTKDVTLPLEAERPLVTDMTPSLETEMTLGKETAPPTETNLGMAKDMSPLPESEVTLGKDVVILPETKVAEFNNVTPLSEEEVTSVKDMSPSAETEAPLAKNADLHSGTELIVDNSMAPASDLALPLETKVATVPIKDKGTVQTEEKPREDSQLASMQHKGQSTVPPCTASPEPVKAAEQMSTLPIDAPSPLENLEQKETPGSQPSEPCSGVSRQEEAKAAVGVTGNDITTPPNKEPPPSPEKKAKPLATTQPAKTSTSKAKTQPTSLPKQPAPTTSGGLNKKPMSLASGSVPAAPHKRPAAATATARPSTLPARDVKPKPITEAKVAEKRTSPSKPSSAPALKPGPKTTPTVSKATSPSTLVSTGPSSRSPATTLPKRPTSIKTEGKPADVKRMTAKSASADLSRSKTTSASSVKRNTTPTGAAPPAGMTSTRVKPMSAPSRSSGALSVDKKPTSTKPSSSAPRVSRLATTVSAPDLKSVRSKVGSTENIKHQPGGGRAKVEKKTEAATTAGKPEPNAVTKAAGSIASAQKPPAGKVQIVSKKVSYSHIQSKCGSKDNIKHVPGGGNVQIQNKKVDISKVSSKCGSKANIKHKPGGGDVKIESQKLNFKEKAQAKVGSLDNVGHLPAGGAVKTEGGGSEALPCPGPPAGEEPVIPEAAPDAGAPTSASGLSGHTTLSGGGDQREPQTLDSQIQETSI
UniProt P27773, residues 25-505: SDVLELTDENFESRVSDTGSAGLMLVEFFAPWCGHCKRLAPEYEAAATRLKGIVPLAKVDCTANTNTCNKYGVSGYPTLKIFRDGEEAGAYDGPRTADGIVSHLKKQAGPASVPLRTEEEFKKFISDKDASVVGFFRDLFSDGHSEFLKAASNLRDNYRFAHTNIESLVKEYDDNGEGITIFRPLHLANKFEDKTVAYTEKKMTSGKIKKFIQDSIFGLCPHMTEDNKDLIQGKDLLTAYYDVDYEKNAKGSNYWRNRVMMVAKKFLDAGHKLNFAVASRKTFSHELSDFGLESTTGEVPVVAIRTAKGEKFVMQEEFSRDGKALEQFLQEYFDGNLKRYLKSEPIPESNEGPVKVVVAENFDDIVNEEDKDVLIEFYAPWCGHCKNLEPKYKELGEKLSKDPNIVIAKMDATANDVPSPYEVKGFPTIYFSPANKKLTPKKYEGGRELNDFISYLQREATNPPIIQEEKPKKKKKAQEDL
UniProt P14873: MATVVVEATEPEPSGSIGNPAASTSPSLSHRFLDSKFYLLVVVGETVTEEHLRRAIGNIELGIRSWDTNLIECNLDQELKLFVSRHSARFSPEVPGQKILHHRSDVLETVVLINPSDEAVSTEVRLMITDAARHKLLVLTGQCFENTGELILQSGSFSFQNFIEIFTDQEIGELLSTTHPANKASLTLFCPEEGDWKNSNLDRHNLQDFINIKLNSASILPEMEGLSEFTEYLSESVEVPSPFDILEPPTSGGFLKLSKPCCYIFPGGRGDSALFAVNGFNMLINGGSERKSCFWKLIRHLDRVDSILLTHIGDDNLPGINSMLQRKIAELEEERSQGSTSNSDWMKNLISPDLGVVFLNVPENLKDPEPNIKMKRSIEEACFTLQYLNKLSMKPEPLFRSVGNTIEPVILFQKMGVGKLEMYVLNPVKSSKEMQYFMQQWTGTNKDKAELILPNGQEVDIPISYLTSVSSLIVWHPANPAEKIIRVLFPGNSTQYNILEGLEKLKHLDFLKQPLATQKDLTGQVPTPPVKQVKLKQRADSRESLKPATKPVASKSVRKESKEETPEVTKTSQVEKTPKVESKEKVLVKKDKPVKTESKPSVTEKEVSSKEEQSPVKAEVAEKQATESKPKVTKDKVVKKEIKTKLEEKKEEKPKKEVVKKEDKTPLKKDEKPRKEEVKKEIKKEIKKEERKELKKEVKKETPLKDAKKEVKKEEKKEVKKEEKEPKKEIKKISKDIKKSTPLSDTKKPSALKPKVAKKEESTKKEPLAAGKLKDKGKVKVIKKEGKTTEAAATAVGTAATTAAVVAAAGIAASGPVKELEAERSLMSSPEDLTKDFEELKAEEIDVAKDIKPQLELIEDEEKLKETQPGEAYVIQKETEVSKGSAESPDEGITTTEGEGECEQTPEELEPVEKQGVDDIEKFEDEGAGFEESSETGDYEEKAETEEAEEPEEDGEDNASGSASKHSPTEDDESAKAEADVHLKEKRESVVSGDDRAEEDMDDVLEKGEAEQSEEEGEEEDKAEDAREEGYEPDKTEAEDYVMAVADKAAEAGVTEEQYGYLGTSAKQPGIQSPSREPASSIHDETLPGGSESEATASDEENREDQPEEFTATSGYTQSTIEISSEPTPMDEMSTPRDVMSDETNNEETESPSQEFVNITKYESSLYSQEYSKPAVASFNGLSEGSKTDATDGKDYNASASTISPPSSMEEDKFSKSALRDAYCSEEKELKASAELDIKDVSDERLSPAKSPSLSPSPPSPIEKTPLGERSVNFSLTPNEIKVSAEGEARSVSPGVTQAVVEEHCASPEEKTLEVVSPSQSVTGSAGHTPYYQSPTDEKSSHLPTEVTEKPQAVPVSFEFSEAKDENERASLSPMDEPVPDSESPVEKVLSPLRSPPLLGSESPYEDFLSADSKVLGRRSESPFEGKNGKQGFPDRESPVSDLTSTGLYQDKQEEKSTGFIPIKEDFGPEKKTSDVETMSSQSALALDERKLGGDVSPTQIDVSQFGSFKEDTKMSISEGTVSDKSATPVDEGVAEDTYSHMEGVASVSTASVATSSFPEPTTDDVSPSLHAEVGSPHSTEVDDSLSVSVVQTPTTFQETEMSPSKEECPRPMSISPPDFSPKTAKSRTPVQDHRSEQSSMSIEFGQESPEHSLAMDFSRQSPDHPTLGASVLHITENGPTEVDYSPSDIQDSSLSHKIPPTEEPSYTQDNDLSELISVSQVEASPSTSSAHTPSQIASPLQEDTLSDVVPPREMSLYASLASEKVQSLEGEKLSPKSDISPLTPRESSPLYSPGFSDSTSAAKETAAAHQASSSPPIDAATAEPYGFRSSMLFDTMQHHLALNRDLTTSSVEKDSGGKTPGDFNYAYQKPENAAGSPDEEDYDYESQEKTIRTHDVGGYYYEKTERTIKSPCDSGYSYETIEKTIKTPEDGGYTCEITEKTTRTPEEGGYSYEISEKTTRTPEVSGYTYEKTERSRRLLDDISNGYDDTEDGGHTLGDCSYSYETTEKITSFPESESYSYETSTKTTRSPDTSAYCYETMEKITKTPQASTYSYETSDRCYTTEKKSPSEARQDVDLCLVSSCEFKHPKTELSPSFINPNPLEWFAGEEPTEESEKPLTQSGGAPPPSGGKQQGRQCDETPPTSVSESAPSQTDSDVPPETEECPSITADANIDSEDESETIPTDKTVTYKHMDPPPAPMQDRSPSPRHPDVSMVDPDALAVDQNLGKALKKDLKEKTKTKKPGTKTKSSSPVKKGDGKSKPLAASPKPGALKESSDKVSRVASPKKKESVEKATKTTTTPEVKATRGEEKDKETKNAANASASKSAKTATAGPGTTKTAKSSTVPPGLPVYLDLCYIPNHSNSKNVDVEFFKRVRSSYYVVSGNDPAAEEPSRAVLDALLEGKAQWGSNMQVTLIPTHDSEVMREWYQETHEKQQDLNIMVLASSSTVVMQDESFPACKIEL
UniProt P62259: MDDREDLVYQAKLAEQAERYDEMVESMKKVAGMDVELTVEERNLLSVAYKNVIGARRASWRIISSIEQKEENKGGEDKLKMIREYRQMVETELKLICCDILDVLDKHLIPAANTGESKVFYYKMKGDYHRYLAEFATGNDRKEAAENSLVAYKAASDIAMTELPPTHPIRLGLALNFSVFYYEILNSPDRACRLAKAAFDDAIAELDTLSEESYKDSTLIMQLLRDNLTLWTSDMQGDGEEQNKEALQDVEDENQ
UniProt Q7TSJ2: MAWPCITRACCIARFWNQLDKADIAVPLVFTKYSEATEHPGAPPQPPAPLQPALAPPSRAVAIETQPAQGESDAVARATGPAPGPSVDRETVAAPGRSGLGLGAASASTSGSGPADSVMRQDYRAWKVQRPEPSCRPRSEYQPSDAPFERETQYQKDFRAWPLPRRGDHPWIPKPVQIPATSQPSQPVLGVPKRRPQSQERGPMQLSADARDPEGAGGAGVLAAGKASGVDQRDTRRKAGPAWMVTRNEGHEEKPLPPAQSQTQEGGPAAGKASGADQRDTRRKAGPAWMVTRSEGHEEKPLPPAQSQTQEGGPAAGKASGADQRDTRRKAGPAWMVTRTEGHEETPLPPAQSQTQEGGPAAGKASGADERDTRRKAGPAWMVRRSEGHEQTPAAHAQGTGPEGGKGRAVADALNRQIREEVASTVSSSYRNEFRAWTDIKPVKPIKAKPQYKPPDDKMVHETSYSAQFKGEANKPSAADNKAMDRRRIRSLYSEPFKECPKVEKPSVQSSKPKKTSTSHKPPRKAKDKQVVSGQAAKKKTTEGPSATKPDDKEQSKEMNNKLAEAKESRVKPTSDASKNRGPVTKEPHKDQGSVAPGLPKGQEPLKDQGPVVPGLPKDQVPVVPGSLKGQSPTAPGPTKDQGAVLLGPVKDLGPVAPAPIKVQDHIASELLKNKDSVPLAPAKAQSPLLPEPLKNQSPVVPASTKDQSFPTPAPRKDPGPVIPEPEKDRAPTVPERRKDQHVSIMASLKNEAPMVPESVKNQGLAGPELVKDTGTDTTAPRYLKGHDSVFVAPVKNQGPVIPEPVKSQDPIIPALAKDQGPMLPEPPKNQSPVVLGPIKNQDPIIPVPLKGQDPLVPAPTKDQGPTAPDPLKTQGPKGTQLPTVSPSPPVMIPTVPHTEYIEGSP
UniProt Q811D0: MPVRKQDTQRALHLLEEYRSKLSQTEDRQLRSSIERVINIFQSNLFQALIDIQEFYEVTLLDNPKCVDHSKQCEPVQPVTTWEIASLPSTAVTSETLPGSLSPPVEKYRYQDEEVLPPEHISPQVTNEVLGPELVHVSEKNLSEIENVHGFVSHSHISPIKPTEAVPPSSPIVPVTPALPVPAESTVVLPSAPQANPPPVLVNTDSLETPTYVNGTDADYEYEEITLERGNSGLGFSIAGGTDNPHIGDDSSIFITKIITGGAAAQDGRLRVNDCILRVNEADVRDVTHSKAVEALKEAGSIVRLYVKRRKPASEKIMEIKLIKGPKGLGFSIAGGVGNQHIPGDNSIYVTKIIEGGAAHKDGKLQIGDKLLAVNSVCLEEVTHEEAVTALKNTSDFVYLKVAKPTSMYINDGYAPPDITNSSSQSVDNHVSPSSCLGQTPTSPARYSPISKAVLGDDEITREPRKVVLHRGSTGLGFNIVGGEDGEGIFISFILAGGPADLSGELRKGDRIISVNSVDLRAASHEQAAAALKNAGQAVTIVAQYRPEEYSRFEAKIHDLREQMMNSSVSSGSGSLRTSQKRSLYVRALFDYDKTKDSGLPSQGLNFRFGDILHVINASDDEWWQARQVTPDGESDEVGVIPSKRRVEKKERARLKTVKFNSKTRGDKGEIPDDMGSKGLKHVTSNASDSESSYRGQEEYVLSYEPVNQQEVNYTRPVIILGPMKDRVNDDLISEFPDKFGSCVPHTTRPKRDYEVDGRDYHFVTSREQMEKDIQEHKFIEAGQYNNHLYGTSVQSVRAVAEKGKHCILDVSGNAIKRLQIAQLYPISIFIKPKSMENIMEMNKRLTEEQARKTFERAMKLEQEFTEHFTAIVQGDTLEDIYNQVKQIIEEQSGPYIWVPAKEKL

These are yes or no findings as the source states them, for the method shown. In cells and extracts the contact can be indirect. A yes stands for co-enrichment or nearness to the bait. Other partners may have been found. No binding means not detected with the bait. For some assays here: Where a sequence is shown, tags or fusion partners need not be part of it.

To fix the notation:
T1: phosphoY458 Kv1.2 (mouse), P63141
T1 chain: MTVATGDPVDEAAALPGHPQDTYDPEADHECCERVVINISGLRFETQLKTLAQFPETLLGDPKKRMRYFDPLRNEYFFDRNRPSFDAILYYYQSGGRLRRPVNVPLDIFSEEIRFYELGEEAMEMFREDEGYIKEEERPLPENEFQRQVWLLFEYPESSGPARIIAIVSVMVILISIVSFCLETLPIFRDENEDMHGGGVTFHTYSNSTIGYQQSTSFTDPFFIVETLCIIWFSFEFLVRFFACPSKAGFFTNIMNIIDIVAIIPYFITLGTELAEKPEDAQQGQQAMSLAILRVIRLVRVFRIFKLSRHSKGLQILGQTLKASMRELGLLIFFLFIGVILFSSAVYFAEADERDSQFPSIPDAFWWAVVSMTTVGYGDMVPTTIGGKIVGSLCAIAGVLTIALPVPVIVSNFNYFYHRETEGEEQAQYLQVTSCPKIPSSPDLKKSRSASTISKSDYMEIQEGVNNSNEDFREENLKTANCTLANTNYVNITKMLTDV

B1: TAG1 (protein, UniProt Q61330 31-1014)
chain: QGTPATFGPVFEEQPVGLLFPEESAEDQVTLACRARASPPATYRWKMNGTEMNLEPGSRHQLMGGNLVIMSPTKAQDAGVYQCLASNPVGTVVSKEAVLRFGFLQEFSKEERDPVKTHEGWGVMLPCNPPAHYPGLSYRWLLNEFPNFIPTDGRHFVSQTTGNLYIARTNASDLGNYSCLATSHLDFSTKSVFSKFAQLNLAAEDPRLFAPSIKARFPPETYALVGQQVTLECFAFGNPVPRIKWRKVDGSLSPQWGTAEPTLQIPSVSFEDEGTYECEAENSKGRDTVQGRIIVQAQPEWLKVISDTEADIGSNLRWGCAAAGKPRPMVRWLRNGEPLASQNRVEVLAGDLRFSKLNLEDSGMYQCVAENKHGTIYASAELAVQALAPDFRQNPVRRLIPAARGGEISIPCQPRAAPKATILWSKGTEILGNSTRVTVTLDGTLIIRNISRSDEGKYTCFAENFMGKANSTGILSVRDATKITLAPSSADINVGDNLTLQCHASHDPTMDLTFTWTLDDFPVDFDKPGGHYRRASVKETIGDLTILNAQLRHGGTYTCMAQTVVDGASKEATVLVRGPPGPPGGVVVRDIGDTTVQLSWSRGFDNHSPIAKYTLQARTPPSGKWKQVRTNPVNIEGNAETAQVLGLMPWMDYEFRVSASNILGTGEPSGPSSRIRTKEAVPSVAPSGLSGGGGAPGELTINWTPMSREYQNGDGFGYLLSFRRQGSSSWQTARVPGADTQYFVYSNDSIHPYTPFEVKIRSYNRRGDGPESLTAIVYSAEEEPKVAPAKVWAKGSSSSEMNVSWEPVLQDMNGILLGYEIRYWKAGDKEAAADRVRTAGLDSSARVTGLYPNTKYHVTVRAYNRAGTGPASPSADAMTMKPPPRRPPGNISWTFSSSSLSLKWDPVVPLRNESTVTGYKMLYQNDLQPTPMLHLTSKNWIEIPVPEDIGHALVQIRTTGPGGDGIPAEVHIVRNGGTSMMVES
B2: Caspr2, Q9CPW0 28-1332 (protein)
chain: APSTFQKCDEPLISGLPHVSFSSSSSLSSSYAPGYAKINKRGGAGGWSPSDSDHYQWLQVDFGNRKQISAIATQGRYSSSDWVTQYRMLYSDTGRNWKPYHQDGNIWAFPGNINSDSVVRHDLQHAVVARYVRIVPLDWNGEGHIGLRAEVYGCAYWADVINFDGHGVLPYRFRNKKMKTLKDVIALKFKTSESEGVLLHGEGQQGDYITLELKKAKLVLSLNLGSNQLGPIYGHTSVTSGSLLDDHHWHSVLIERQGRSINLTLDRSMQHFRTNGEFDYLDLDYEITFGGIPFSGKPSSSNRKNFKGCMESINYNGVNITDLARRKKLGPSNMGNLSFSCVEPYTVPVFFNATSYLEVPGRLNQDLFSVSFQFRTWNPSGLLLFSHFADNLGNVEIDLVESKVGVHINNTQTKTSQIDISSGSGLNDGQWHEVRFLAKENFAVLTIDGDEASAVRTNSPLQVKTGEKYFFGGFLNHMNNASYSALQPSFQGCMQLIQVDDQLVNLYEVAQRKPGSFANVTIDMCAIIDRCVPNHCEHGGKCSQTWDSFKCTCDETGYSGATCHNSIYEPSCEAYKHLGQTSNYYWIDPDGSGPLGPLKVYCNMTEDKVWTIVSHDLQMQTTVVGYNPEKYSVTQLIYSASMDQISAITSSAEYCEQYVSYFCRMSRLLNTPDGSPYTWWVGKANEKHYYWGGSEPGIQKCACGIERNCTDPKYYCNCDADYKQWRKDAGFLSYKDHLPVSQVVVGDTDRQGSEAKLSVGPLRCQGDRNYWNAASFPNPSSYLHFSTFQGETSADISFYFKTLIPRGVFLENLGNTDFIKLELKSATEVSFSFDVGNGPVEIVVRSPSPLNDDQWHRVTAERNVKQASLQVDRLPQQIRKAPTEGHTRLELYSQLFVGGAGGQQGFLGCIRSLRMNGVTLDLEERAKVTSGFKSGCSGHCTSYGANCENGGKCIEKYHGYSCDCSNTAYDGTFCNKDVGAFFEEGMWLRYNFQAPAVTARDTGSRAENSADQQQHLAPDLAQEQIHFSFSTTKAPCILLYVSSLTTDFLAVLVKPTGNLQIRYNLGGTREPFNIDVDHRNMANGQPHSVNITRHERTIILKLDHYPAVGYHLPSSSDTLFNSPKSLFLGKVIETGKIDQEIHKYNTPGFTGCLSRVQFNHIAPLKAALRQTNASAHVHIQGELVESNCGASPLTLSPMSSATDPWHLDHLDSASADFPYNPGQGQAIRNGVNRNSAIIGGVIAVVIFTILCTLVFLIRYMFRHKGTYHTNEAKGAESAESADAAIMNNDPNFTETIDESKKEWLI
modifications: here or on the partner: phosphotyrosine at 458

The target of the first assay is phosphoY458 Kv1.2 (mouse) (UniProt P63141). As to the kind of experiment: affinity purification with mass spectrometry.
Conditions: not given
In the case of “actin related protein 1a (from UniProt P61164 1-376)”, the binding entry is “binds”.

For “MAP1 light chain 3a (from UniProt Q91VR7 1-121)”, the binding entry is given as “binds”.

For the molecule MAP4 (from UniProt P27546 1-1125), the binding entry was “binds”.

For the molecule “valosin-containing protein (from UniProt Q01853 1-806)”, the binding entry is “binds”.

On to PDIA3 (from UniProt P27773 25-505), for which the binding entry is on record as “binds”.

For the molecule “ubiquitin activation E1 enzyme UBA1 (from UniProt Q02053 1-1058)”, the binding result was “binds”.

For “serine/threonine-protein phosphatase 2B catalytic subunit alpha (from UniProt P63328 1-521) (enzyme)”, the binding result was “binds”.

With Kv1.1 (from UniProt P16388 1-495), the binding result is recorded as “binds”.

As to MAP1b (from UniProt P14873 1-2464), the binding entry is recorded as “binds”.

For septin 3 (from UniProt Q9Z1S5 1-350), the binding result is listed as “no binding”.

Take copine 6 (from UniProt Q9Z140 1-557): the binding result is “no binding”.

Consider “mitogen-activated protein kinase 3 (from UniProt Q63844 1-380) (enzyme)”, for which the binding result is on record as “binds”.

As for MAP1a (from UniProt Q9QYR6 1-2776), the binding entry is recorded as “binds”.

As for 14-3-3 ε (from UniProt P62259 1-255), the binding entry is “no binding”.

Turning to SCRIB (from UniProt Q80U72 1-1665), the binding result is “no binding”.

In the case of annexin A2 (from UniProt P07356 1-339), the binding entry is “no binding”.

For the molecule “ATP6V1H subunit (from UniProt Q8BVE3 1-483)”, the binding entry is reported as “binds”.

For MAP6 (from UniProt Q7TSJ2 1-906), the binding result was “binds”.

For “cyclin-dependent-like kinase 5 (from UniProt P49615 1-292) (enzyme)”, the binding entry is listed as “binds”.

Consider copine 7 (from UniProt Q0VE82 1-557), for which the binding entry is “binds”.

With Cyfip2 (from UniProt Q5SQX6 1-1253), the binding result is listed as “binds”.

In the case of DLG1 (from UniProt Q811D0 1-905), the binding entry was “no binding”.

On to “casein kinase II subunit beta (from UniProt P67871 1-215)”, for which the binding result is recorded as “binds”.

tau (from UniProt P10637 1-733): the binding entry is listed as “binds”.

For the next assay the target is unchanged. As to the kind of experiment: affinity purification with mass spectrometry.
Conditions: not given
The source holds these as a separate data set.
In the case of B1, the binding entry was “no binding”.

The next assay deals with T1, phosphoY458 Kv1.2 (mouse), P63141. As to the kind of experiment: affinity purification with mass spectrometry. Conditions: remark: other sources report otherwise.
Take B2: the binding entry is recorded as “no binding”.
